Laboratory results as given in patent US6750224B1, “Antibacterial optically pure benzoquinolizine carboxylic acids, processes, compositions and methods of treatment” (priority 1999, dated 2004).

Columns and labels:
[1] = system: S.aureus strain bearing Nor A efflux pump; type: cell-based; settings: Nor A efflux pump strain vs strain devoid of efflux pump
Description: Using this set of MIC values, % loss in potency due to efflux was calculated for each of the fluoroquinolone in Table 5

[2] = system: S.aureus with and without efflux pump; test: Mouse model of infection, 50% protective dose; type: in vivo; settings: S.aureus with Nor A efflux pump vs without

Structure (SMILES): O=C(O)c1cn(C2CC2)c2cc(N3CCNCC3)c(F)cc2c1=O [Ciprofloxacin]
- % loss in potency for S. aureus bearing Efflux pump [1]: 94%
- Fold Increase in 50% protective dose [2]: >10 fold
